Some of the results follow.

Chains of the proteins cited; added tags and fusions are not shown.
UniProt Q0JBA9, entry or part of it: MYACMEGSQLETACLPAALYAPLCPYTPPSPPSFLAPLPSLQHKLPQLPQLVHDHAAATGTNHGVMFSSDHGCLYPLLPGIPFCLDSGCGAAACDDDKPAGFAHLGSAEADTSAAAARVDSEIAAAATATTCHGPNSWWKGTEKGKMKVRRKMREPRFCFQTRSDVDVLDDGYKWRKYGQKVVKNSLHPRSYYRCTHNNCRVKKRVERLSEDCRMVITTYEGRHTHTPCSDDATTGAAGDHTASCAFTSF

The target of the experiment is OsWRKY34 (Oryza sativa, UniProt Q0JBA9 1-250). The experiment in a line: protein-binding microarray (RPBM); PBS, 2% BSA, 51.3 ng/ul salmon testes DNA, 50 uM zinc acetate, 200 nM TF, 25 C, 1 h; high values mean tight binding. The settings on record: protein: recombinant; tags: N-terminal polyhistidine and DsRed monomer fusion (pET32a); label: CyDye5-dUTP incorporated in the synthesized complementary strand; 3' TTTTT single-stranded linker to array surface; dsDNA, one strand shown. Put shortly:
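Polyhistidine-tagged DsRed fusions of transcription factors, joined at the N-terminus, were expressed in E. coli BL21-CodonPlus and isolated on Ni–NTA. They were incubated at 200 nM for 1 h at 25 °C on a custom Agilent array, double-stranded and BSA-blocked, in PBS with 2% BSA, salmon testes DNA and 50 µM zinc acetate. The binding signal is per-feature fluorescence intensity (arbitrary units) read on an Axon 4000B scanner after washing.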
For “CCAGCCACATCGCAGACTATGAATGCAAACAACGCTTATCCGGAGTCACCTAGTGCAG”, the binding signal was 8560 fluorescence intensity (a.u.).
For “ACCGCTTCAGCTTCCTCTCGCCGGCGTCGCGGCCGTCGTCCGGAGTCACCTAGTGCAG” the value was 8980 fluorescence intensity (a.u.); for “TCTCTCGGCCCTCGTCCCGTCCCGTCTCGCCTCCTCCGCACGGAGTCACCTAGTGCAG”, 13600 fluorescence intensity (a.u.); for “TTAGGGGTAGGAGGGGTCTCCACATGGCGGCGGCGGCGGCCGGAGTCACCTAGTGCAG”, 11600 fluorescence intensity (a.u.).
For “TTGCTTGCTGCCCAGTATTGGGAGGGGCCGAAGGGCAATGCGGAGTCACCTAGTGCAG” the value was 8100 fluorescence intensity (a.u.).
“GCTGCCTGCCTGACCAATCCGTTATCTTCTTCCCCGATGCCGGAGTCACCTAGTGCAG”: the binding signal is 8510 fluorescence intensity (a.u.).
With “GCTAATAAGTGCTTACATTGTTTTGGATGATCACCAGCAACGGAGTCACCTAGTGCAG”, the binding signal was 8080 fluorescence intensity (a.u.).
As to “ACATTGCCCTACTCCTCACGCTCTTTCGATCTTCCTCCTCCGGAGTCACCTAGTGCAG”, the binding signal is 8120 fluorescence intensity (a.u.).
Turning to “ATATATCTTTGATGGTCGATGGCTGTTGGGTTTGTGGGCTCGGAGTCACCTAGTGCAG”, the binding signal was 11200 fluorescence intensity (a.u.).
On to “TGTTAAAACACCCTTTTTCACTTTTCTAGCCGTTCACTTTCGGAGTCACCTAGTGCAG”, for which the binding signal is 9280 fluorescence intensity (a.u.).
For the sequence “TGTTCTTTTTTTTTACACGCGTTTTTTTTACATTGTCGTTCGGAGTCACCTAGTGCAG”, the binding signal was 18400 fluorescence intensity (a.u.).
“AACCAATCACAACCCTGCACCATTTATTTATATCTACTTTCGGAGTCACCTAGTGCAG”: the binding signal is 9330 fluorescence intensity (a.u.).
For “TACTTTTCAAAATCCATCTTTATTTTTTTATATTTAATTCCGGAGTCACCTAGTGCAG”, the binding signal was 9370 fluorescence intensity (a.u.).
With “GGCTTTTTCTTTCGGGAGGAGGGATTTGGGTAGCAATGGCCGGAGTCACCTAGTGCAG”, the binding signal was 9720 fluorescence intensity (a.u.).
For “GGTCATTTCCATCTTGCGTCGTTAAATGCATTGTTTCTCCCGGAGTCACCTAGTGCAG” the value was 11700 fluorescence intensity (a.u.); for “GATTCCTTTCTGGACTATCTTTGTTTCTTATAGAGGACATCGGAGTCACCTAGTGCAG”, 9560 fluorescence intensity (a.u.).
For “TTTTGGTACGTTATTAGTGTGTGTATCAGTTTTTAAGTTCCGGAGTCACCTAGTGCAG”, the binding signal is 9430 fluorescence intensity (a.u.).
Take “AGGCCTGTGTTGCCGATCTGTTGCCTGTTGTGTAAATTTTCGGAGTCACCTAGTGCAG”: the binding signal is 8710 fluorescence intensity (a.u.).
Regarding “CCTGTTCCTGTGGCTATGTCTCATTTGGTTACGTTCAAGCCGGAGTCACCTAGTGCAG”, the binding signal was 9940 fluorescence intensity (a.u.).
In the case of “TGCAGCTGAACCAGTCAACATCTCTGCACGCTGCATTCCACGGAGTCACCTAGTGCAG”, the binding signal is 8860 fluorescence intensity (a.u.).
Turning to “TATATATATTTATCACCGGTTTATTTTGGTCTGGTCTTTTCGGAGTCACCTAGTGCAG”, the binding signal is 13000 fluorescence intensity (a.u.).
Consider “GGTTTTTCAGCTTCTATGTTCTCGTTCATTTTCTGAATTCCGGAGTCACCTAGTGCAG”, for which the binding signal was 13000 fluorescence intensity (a.u.).
As to “GTTATGGTCCGTTTGCAAAAATTATGAGGGTCTCGTACACCGGAGTCACCTAGTGCAG”, the binding signal is 10300 fluorescence intensity (a.u.).
With “CACGCACGCCTCGCCACCCCTGCCTTTTTTTACATGACGACGGAGTCACCTAGTGCAG” the figure was 11400 fluorescence intensity (a.u.); with “TTTTTTTCTCTTTCTTTTTTCTTTTCTTCGTTTTCTTTCACGGAGTCACCTAGTGCAG”, 9230 fluorescence intensity (a.u.); with “CCTACTCAGTGTTCACGGATAACCCGGTCTGACTTTTCATCGGAGTCACCTAGTGCAG”, 8110 fluorescence intensity (a.u.).
In the case of “CTCTTCTCTTGGTTTGGGGTGTCACGACTCACGACCTGCCCGGAGTCACCTAGTGCAG”, the binding signal was 8460 fluorescence intensity (a.u.).
“TGCAATGTCTCCATTCCTTTTCATGTCTCACTGCAATTTGCGGAGTCACCTAGTGCAG”: the binding signal is 9400 fluorescence intensity (a.u.).
As for “CTCTATGCATGTGCCCAAAGATTCGATGTAATGTTTTTTCCGGAGTCACCTAGTGCAG”, the binding signal was 8570 fluorescence intensity (a.u.).
Regarding “CTTCCACCGCATCGTCGCTCGCCGGTGAGCATCCCTCCCTCGGAGTCACCTAGTGCAG”, the binding signal was 9620 fluorescence intensity (a.u.).
Take “CATCCTTTGATGGTGTTGATTCCGATTTTATCCTACGTGACGGAGTCACCTAGTGCAG”: the binding signal is 9470 fluorescence intensity (a.u.).
In the case of “ATATAGGGGTTGGTCTTCCACGTCAAATTTGGGGTAGATACGGAGTCACCTAGTGCAG”, the binding signal was 10200 fluorescence intensity (a.u.).
For “TCTGCTCAGGTTGTTGTTTTCACCATTTTCCTTACTGTAGCGGAGTCACCTAGTGCAG” the value was 12100 fluorescence intensity (a.u.); for “TGAGTTTCTGTGTCCAACTTTAACTGTCCGTCTTATATGACGGAGTCACCTAGTGCAG”, 8120 fluorescence intensity (a.u.); for “ATCATGCGCTAATAGCTTCCTTGTTTTTGTGTGCCCACTTCGGAGTCACCTAGTGCAG”, 15200 fluorescence intensity (a.u.).
“CACTACTCCCATCACGGCACACTGATTCACAGCACACAGTCGGAGTCACCTAGTGCAG”: the binding signal was 9540 fluorescence intensity (a.u.).
With “TCACCTGCCTCGCTCGCTTCGTCGCTTCCAGCTTCACGCACGGAGTCACCTAGTGCAG”, the binding signal is 10200 fluorescence intensity (a.u.).
As for “AACCTTTCATTATTTATGTCCATGTACTCCCTGTTGAATTCGGAGTCACCTAGTGCAG”, the binding signal was 11600 fluorescence intensity (a.u.).
Consider “TATTTCCCCGGTGAAACGCACGCGATCCTGACAGTATATTCGGAGTCACCTAGTGCAG”, for which the binding signal was 8370 fluorescence intensity (a.u.).
With “CTCGTTATATCTATTATAAATTTTTTAATATACATGTTATCGGAGTCACCTAGTGCAG” the figure was 9040 fluorescence intensity (a.u.).
Consider “CATTTTTTTTCATATGCCCTGTTGCTCACTATGTTTGTCACGGAGTCACCTAGTGCAG”, for which the binding signal is 10300 fluorescence intensity (a.u.).
Turning to “ATTGTCTATTGTTTATATGCTCATTTTACTACCAAATTTACGGAGTCACCTAGTGCAG”, the binding signal was 8780 fluorescence intensity (a.u.).

Values taken from article PMC7819943, “Rice protein-binding microarrays: a tool to detect cis-acting elements near promoter regions in rice”.
